Measured values: article PMC10425210 (The Journal of Clinical Investigation, 2023)
Values joined by “and” are separate entries in the source; they are usually repeats but may differ in a detail not shown here. Identical values can stand only once. Like-named read-outs stand apart in the source and are kept apart here. This continues a long series; more values of the same kind are listed elsewhere.

Key:
[1] = Plasma pharmacokinetics after a single subcutaneous administration of LEN; assay type: in vivo, rhesus macaques
Experimental: All animals were housed at Bioqual Inc. For the in vivo SHIV stock titration study, 8 untreated outbred Indian-origin male rhesus macaques aged 3–5 years were challenged intrarectally per round for a total of 5 challenge rounds using increasing virus doses ranging from 0.625 to 100 TCID50, with the 100 TCID50 round performed twice for increased resolution (Supplemental Table 2). Plasma viral load was measured to confirm the infection status. […] Injection sites were monitored daily by veterinary staff for 2 weeks and then weekly through the end of study. On week 7, 11 animals were challenged by the intrarectal route with 1 mL RPMI containing 100 TCID50 SHIV-SF162P3. Whole blood was collected and processed into plasma and PBMCs as necessary for the assessment of routine hematology and clinical chemistry, viral load analysis, serology, and the bioanalysis of drug levels. Animals were considered protected if they remained SHIV negative by a plasma PCR assay and seronegative by enzyme immunoassay through week 10 after challenge.
Rhesus plasma samples were stored frozen at –80°C and thawed, and a 50 μL aliquot of each was treated with 200 μL acetonitrile containing an internal standard. After precipitation of the protein component, a 100 μL aliquot of the supernatant was transferred to a clean 96-well plate and mixed with 200 μL water. A 10 μL aliquot of the above solution was then injected into a Q-Exactive high resolution mass spectrometer from Thermo Electron with electrospray ionization in positive mode.

SHIV-SF162P3 = assay type: in vivo, rhesus macaques
[2] = animal BM55, 20 mg/kg, week 1 post challenge
[3] = animal BM55, 20 mg/kg, week 2 post challenge
[4] = animal BM55, 20 mg/kg, week 3 post challenge
[5] = animal BM55, 20 mg/kg, week 4 post challenge
[6] = animal BM55, 20 mg/kg, week 5 post challenge
[7] = animal BN33, 20 mg/kg, week 1 post challenge
[8] = animal BN33, 20 mg/kg, week 2 post challenge
[9] = animal BN33, 20 mg/kg, week 3 post challenge
[10] = animal BN33, 20 mg/kg, week 4 post challenge
[11] = animal BN33, 20 mg/kg, week 5 post challenge
[12] = animal CP67, 75 mg/kg, week 12 post challenge
[13] = animal CP67, 75 mg/kg, week 13 post challenge
[14] = animal CP67, 75 mg/kg, week 14 post challenge
[15] = animal CP67, 75 mg/kg, week 15 post challenge
[16] = animal CP67, 75 mg/kg, week 16 post challenge
[17] = animal CP67, 75 mg/kg, week 17 post challenge
[18] = animal CP67, 75 mg/kg, week 18 post challenge
[19] = animal V229, 20 mg/kg, week 1 post challenge
[20] = animal V229, 20 mg/kg, week 2 post challenge
[21] = animal V229, 20 mg/kg, week 3 post challenge
[22] = animal V229, 20 mg/kg, week 4 post challenge
[23] = animal V229, 20 mg/kg, week 5 post challenge
[24] = animal V417, 75 mg/kg, week 11 post challenge
[25] = animal V417, 75 mg/kg, week 12 post challenge
[26] = animal V417, 75 mg/kg, week 13 post challenge
[27] = animal V417, 75 mg/kg, week 14 post challenge
[28] = animal V417, 75 mg/kg, week 15 post challenge
[29] = animal V417, 75 mg/kg, week 16 post challenge
[30] = animal V417, 75 mg/kg, week 17 post challenge
[31] = animal V417, 75 mg/kg, week 18 post challenge
[32] = animal V426, 75 mg/kg, week 12 post challenge
[33] = animal V426, 75 mg/kg, week 13 post challenge
[34] = animal V426, 75 mg/kg, week 14 post challenge
[35] = animal V426, 75 mg/kg, week 15 post challenge
[36] = animal V426, 75 mg/kg, week 16 post challenge
[37] = animal V426, 75 mg/kg, week 17 post challenge
[38] = animal V426, 75 mg/kg, week 18 post challenge

## CC(C)(C#Cc1ccc(-c2ccc(Cl)c3c(NS(C)(=O)=O)nn(CC(F)(F)F)c23)c([C@H](Cc2cc(F)cc(F)c2)NC(=O)Cn2nc(C(F)(F)F)c3c2C(F)(F)[C@@H]2C[C@H]32)n1)S(C)(=O)=O [LEN, Lenacapavir]
[1]; [2]
  Plasma LEN: 32.00 nM
[1]; [3]
  Plasma LEN: 36.71 nM
[1]; [4]
  Plasma LEN: 38.02 nM
[1]; [5]
  Plasma LEN: 20.83 nM
[1]; [6]
  Plasma LEN: 13.56 nM
[1]; [7]
  Plasma LEN: 17.80 nM
[1]; [8]
  Plasma LEN: 16.99 nM
[1]; [9]
  Plasma LEN: 14.34 nM
[1]; [10]
  Plasma LEN: 16.20 nM
[1]; [11]
  Plasma LEN: 6.68 nM
[1]; [12]
  Plasma LEN: 16.89 nM
[1]; [13]
  Plasma LEN: 11.36 nM
[1]; [14]
  Plasma LEN: 7.72 nM
[1]; [15]
  Plasma LEN: 5.88 nM
[1]; [16]
  Plasma LEN: 6.11 nM
[1]; [17]
  Plasma LEN: 4.23 nM
[1]; [18]
  Plasma LEN: 3.84 nM
[1]; [19]
  Plasma LEN: 41.40 nM
[1]; [20]
  Plasma LEN: 43.50 nM
[1]; [21]
  Plasma LEN: 43.98 nM
[1]; [22]
  Plasma LEN: 15.25 nM
[1]; [23]
  Plasma LEN: 12.07 nM
[1]; [24]
  Plasma LEN: 22.75 nM
[1]; [25]
  Plasma LEN: 18.52 nM
[1]; [26]
  Plasma LEN: 19.75 nM
[1]; [27]
  Plasma LEN: 16.93 nM
[1]; [28]
  Plasma LEN: 10.77 nM
[1]; [29]
  Plasma LEN: 14.85 nM
[1]; [30]
  Plasma LEN: 15.00 nM
[1]; [31]
  Plasma LEN: 13.17 nM
[1]; [32]
  Plasma LEN: 28.65 nM
[1]; [33]
  Plasma LEN: 34.52 nM
[1]; [34]
  Plasma LEN: 23.63 nM
[1]; [35]
  Plasma LEN: 19.83 nM
[1]; [36]
  Plasma LEN: 19.46 nM
[1]; [37]
  Plasma LEN: 26.86 nM
[1]; [38]
  Plasma LEN: 28.44 nM
[1]; animal V435, 75 mg/kg, week 11 post challenge
  Plasma LEN: 1.77 nM
[1]; animal V435, 75 mg/kg, week 12 post challenge
  Plasma LEN: 1.00 nM
[1]; animal V435, 75 mg/kg, week 13 post challenge
  Plasma LEN: 1.00 nM
[1]; animal V435, 75 mg/kg, week 14 post challenge
  Plasma LEN: 1.00 nM
[1]; animal V435, 75 mg/kg, week 15 post challenge
  Plasma LEN: 1.00 nM
[1]; animal V435, 75 mg/kg, week 16 post challenge
  Plasma LEN: 1.00 nM
[1]; animal V435, 75 mg/kg, week 17 post challenge
  Plasma LEN: 1.00 nM
[1]; animal V435, 75 mg/kg, week 18 post challenge
  Plasma LEN: 1.00 nM
[1]; animal V435, 75 mg/kg, week 19 post challenge
  Plasma LEN: 1.00 nM
[1]; animal V435, 75 mg/kg, week 20 post challenge
  Plasma LEN: 1.00 nM
[1]; individual Infected animals
  Plasma LEN at the time of challenge: 37.30 nM and 38.60 nM and 28.17 nM
[1]; individual Non-infected animals
  Plasma LEN at the time of challenge: 158.01 nM and 177.50 nM and 18.60 nM and 50.08 nM and 100.49 nM and 117.17 nM and 143.42 nM and 153.65 nM
SHIV-SF162P3; animal BM55, 20 mg/kg, week 0 post challenge
  Plasma SHIV RNA: 62 copies per mL
SHIV-SF162P3; [2]
  Plasma SHIV RNA: 62 copies per mL
SHIV-SF162P3; [3]
  Plasma SHIV RNA: 74768 copies per mL
SHIV-SF162P3; [4]
  Plasma SHIV RNA: 1140343 copies per mL
SHIV-SF162P3; [5]
  Plasma SHIV RNA: 77741 copies per mL
SHIV-SF162P3; [6]
  Plasma SHIV RNA: 72579 copies per mL
SHIV-SF162P3; animal BN33, 20 mg/kg, week 0 post challenge
  Plasma SHIV RNA: 62 copies per mL
SHIV-SF162P3; [7]
  Plasma SHIV RNA: 62 copies per mL
SHIV-SF162P3; [8]
  Plasma SHIV RNA: 62 copies per mL
SHIV-SF162P3; [9]
  Plasma SHIV RNA: 62 copies per mL
SHIV-SF162P3; [10]
  Plasma SHIV RNA: 62 copies per mL
SHIV-SF162P3; [11]
  Plasma SHIV RNA: 62 copies per mL
SHIV-SF162P3; animal CP67, 75 mg/kg, week 3 post challenge
  Plasma SHIV RNA: 62 copies per mL
SHIV-SF162P3; animal CP67, 75 mg/kg, week 4 post challenge
  Plasma SHIV RNA: 62 copies per mL
SHIV-SF162P3; animal CP67, 75 mg/kg, week 5 post challenge
  Plasma SHIV RNA: 62 copies per mL
SHIV-SF162P3; animal CP67, 75 mg/kg, week 6 post challenge
  Plasma SHIV RNA: 62 copies per mL
SHIV-SF162P3; animal CP67, 75 mg/kg, week 7 post challenge
  Plasma SHIV RNA: 62 copies per mL
SHIV-SF162P3; animal CP67, 75 mg/kg, week 8 post challenge
  Plasma SHIV RNA: 62 copies per mL
SHIV-SF162P3; animal CP67, 75 mg/kg, week 9 post challenge
  Plasma SHIV RNA: 62 copies per mL
SHIV-SF162P3; animal CP67, 75 mg/kg, week 10 post challenge
  Plasma SHIV RNA: 62 copies per mL
SHIV-SF162P3; animal CP67, 75 mg/kg, week 11 post challenge
  Plasma SHIV RNA: 62 copies per mL
SHIV-SF162P3; [12]
  Plasma SHIV RNA: 62 copies per mL
SHIV-SF162P3; [13]
  Plasma SHIV RNA: 62 copies per mL
SHIV-SF162P3; [14]
  Plasma SHIV RNA: 62 copies per mL
SHIV-SF162P3; [15]
  Plasma SHIV RNA: 62 copies per mL
SHIV-SF162P3; [16]
  Plasma SHIV RNA: 62 copies per mL
SHIV-SF162P3; [17]
  Plasma SHIV RNA: 62 copies per mL
SHIV-SF162P3; [18]
  Plasma SHIV RNA: 62 copies per mL
SHIV-SF162P3; animal V229, 20 mg/kg, week 0 post challenge
  Plasma SHIV RNA: 62 copies per mL
SHIV-SF162P3; [19]
  Plasma SHIV RNA: 62 copies per mL
SHIV-SF162P3; [20]
  Plasma SHIV RNA: 58111 copies per mL
SHIV-SF162P3; [21]
  Plasma SHIV RNA: 299412 copies per mL
SHIV-SF162P3; [22]
  Plasma SHIV RNA: 1919 copies per mL
SHIV-SF162P3; [23]
  Plasma SHIV RNA: 1194 copies per mL
SHIV-SF162P3; animal V417, 75 mg/kg, week 3 post challenge
  Plasma SHIV RNA: 62 copies per mL
SHIV-SF162P3; animal V417, 75 mg/kg, week 4 post challenge
  Plasma SHIV RNA: 62 copies per mL
SHIV-SF162P3; animal V417, 75 mg/kg, week 5 post challenge
  Plasma SHIV RNA: 62 copies per mL
SHIV-SF162P3; animal V417, 75 mg/kg, week 6 post challenge
  Plasma SHIV RNA: 62 copies per mL
SHIV-SF162P3; animal V417, 75 mg/kg, week 7 post challenge
  Plasma SHIV RNA: 62 copies per mL
SHIV-SF162P3; animal V417, 75 mg/kg, week 8 post challenge
  Plasma SHIV RNA: 62 copies per mL
SHIV-SF162P3; animal V417, 75 mg/kg, week 9 post challenge
  Plasma SHIV RNA: 62 copies per mL
SHIV-SF162P3; animal V417, 75 mg/kg, week 10 post challenge
  Plasma SHIV RNA: 62 copies per mL
SHIV-SF162P3; [24]
  Plasma SHIV RNA: 62 copies per mL
SHIV-SF162P3; [25]
  Plasma SHIV RNA: 62 copies per mL
SHIV-SF162P3; [26]
  Plasma SHIV RNA: 62 copies per mL
SHIV-SF162P3; [27]
  Plasma SHIV RNA: 62 copies per mL
SHIV-SF162P3; [28]
  Plasma SHIV RNA: 62 copies per mL
SHIV-SF162P3; [29]
  Plasma SHIV RNA: 62 copies per mL
SHIV-SF162P3; [30]
  Plasma SHIV RNA: 62 copies per mL
SHIV-SF162P3; [31]
  Plasma SHIV RNA: 62 copies per mL
SHIV-SF162P3; animal V426, 75 mg/kg, week 4 post challenge
  Plasma SHIV RNA: 62 copies per mL
SHIV-SF162P3; animal V426, 75 mg/kg, week 5 post challenge
  Plasma SHIV RNA: 62 copies per mL
SHIV-SF162P3; animal V426, 75 mg/kg, week 6 post challenge
  Plasma SHIV RNA: 62 copies per mL
SHIV-SF162P3; animal V426, 75 mg/kg, week 7 post challenge
  Plasma SHIV RNA: 62 copies per mL
SHIV-SF162P3; animal V426, 75 mg/kg, week 8 post challenge
  Plasma SHIV RNA: 62 copies per mL
SHIV-SF162P3; animal V426, 75 mg/kg, week 9 post challenge
  Plasma SHIV RNA: 62 copies per mL
SHIV-SF162P3; animal V426, 75 mg/kg, week 10 post challenge
  Plasma SHIV RNA: 62 copies per mL
SHIV-SF162P3; animal V426, 75 mg/kg, week 11 post challenge
  Plasma SHIV RNA: 62 copies per mL
SHIV-SF162P3; [32]
  Plasma SHIV RNA: 62 copies per mL
SHIV-SF162P3; [33]
  Plasma SHIV RNA: 62 copies per mL
SHIV-SF162P3; [34]
  Plasma SHIV RNA: 62 copies per mL
SHIV-SF162P3; [35]
  Plasma SHIV RNA: 62 copies per mL
SHIV-SF162P3; [36]
  Plasma SHIV RNA: 62 copies per mL
SHIV-SF162P3; [37]
  Plasma SHIV RNA: 62 copies per mL
SHIV-SF162P3; [38]
  Plasma SHIV RNA: 62 copies per mL
SHIV-SF162P3; animal V435, 75 mg/kg, week 3 post challenge
  Plasma SHIV RNA: 35193943 copies per mL
SHIV-SF162P3; animal V435, 75 mg/kg, week 4 post challenge
  Plasma SHIV RNA: 3228706 copies per mL
SHIV-SF162P3; animal V435, 75 mg/kg, week 5 post challenge
  Plasma SHIV RNA: 807911 copies per mL
